{"source": "patent US7572923B2", "about": "“Indirubin derivatives having anticancer property against human cancer cell line” (Anygen Co., Ltd., priority 2004, dated 2009)", "test_system": "human leukemia cell line (HL-60)", "test": "Differentiation with low concentration 1,25-(OH)2D3 or ATRA, NBT reduction method", "type": "cell-based", "conditions": "1 μM compound with low concentration of 1,25-(OH)2D3 and ATRA", "protocol": "For measuring the differentiation inducing effect to acute bone merrow leukemia cell line (HL-60) by indirubin AGM compound, NBT (nitroblue tetrazolium) reduction reaction method is employed. The leukemia cell line is diluted into 2×10^5 cfu/ml. After treating 20 μM and 1 μM concentrations of test compounds, test plate is incubated for 3 days at 37° C. in 5% CO2 incubator. Incubated cells are washed with phosphate buffered saline (PBS). Then, they are further incubated in PBS solution containing 0.1% NBT and 200 ng/ml of PMA (phorbol 12-myristate 13-acetate) for 30 minutes at 37° C. Incubated cells are centrifuged and collected cells are washed with PBS solution. Using cell number counter, differentiated cells forming nitroblue formazan among total cells are counted.\nNext, we test if AGM compound of present invention can synergically induce the differentiation of acute bone merrow leukemia cell line when it is treated with low concentration of 1,25-dihydroxyvitamin D3[1,25-(OH)2D3] or all-trans retinoic acid (ATRA) known as differentiation inducing agent. […] […] As a positive control, conventional differentiation inducing agent is used.", "note": "Some results were stated once for a whole list of compounds, not compound by compound.", "data": [{"smiles": "Nc1ccc2c(c1)C(=C1Nc3ccccc3C1=O)C(=O)N2", "note": "[AGM029, 5′-amino-1H,1′H-[2,3′] biindolylidene-3,2′-dione]", "values": [{"measurement": "differentiation of cells induced by 1,25-(OH)2D3 and ATRA", "value": "more than 70%"}]}]}
